Source: the supplement of paper PMC6411743
± gives the standard deviation of the averaged measurements. The entries are a selection whose mix differs from that of the whole data set.

Protein sequences, listed by entry. Tags and fused reporters are not part of them. Lines headed by an entry give the natural chain unless they say otherwise; changes in a name come on top.
UniProt P35244: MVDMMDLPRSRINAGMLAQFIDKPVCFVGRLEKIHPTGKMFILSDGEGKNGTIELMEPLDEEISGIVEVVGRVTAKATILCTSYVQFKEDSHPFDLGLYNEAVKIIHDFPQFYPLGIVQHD
UniProt P25490, whole entry: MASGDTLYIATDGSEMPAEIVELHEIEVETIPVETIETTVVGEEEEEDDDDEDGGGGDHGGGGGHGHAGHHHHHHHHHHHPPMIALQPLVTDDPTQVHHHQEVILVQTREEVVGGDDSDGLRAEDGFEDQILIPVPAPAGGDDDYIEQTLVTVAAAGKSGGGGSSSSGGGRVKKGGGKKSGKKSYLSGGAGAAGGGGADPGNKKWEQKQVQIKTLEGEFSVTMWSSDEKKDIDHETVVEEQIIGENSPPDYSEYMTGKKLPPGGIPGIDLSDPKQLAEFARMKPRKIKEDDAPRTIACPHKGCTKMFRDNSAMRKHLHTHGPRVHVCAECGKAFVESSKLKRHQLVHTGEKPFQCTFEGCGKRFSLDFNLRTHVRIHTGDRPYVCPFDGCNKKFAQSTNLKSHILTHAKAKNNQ
UniProt P31751: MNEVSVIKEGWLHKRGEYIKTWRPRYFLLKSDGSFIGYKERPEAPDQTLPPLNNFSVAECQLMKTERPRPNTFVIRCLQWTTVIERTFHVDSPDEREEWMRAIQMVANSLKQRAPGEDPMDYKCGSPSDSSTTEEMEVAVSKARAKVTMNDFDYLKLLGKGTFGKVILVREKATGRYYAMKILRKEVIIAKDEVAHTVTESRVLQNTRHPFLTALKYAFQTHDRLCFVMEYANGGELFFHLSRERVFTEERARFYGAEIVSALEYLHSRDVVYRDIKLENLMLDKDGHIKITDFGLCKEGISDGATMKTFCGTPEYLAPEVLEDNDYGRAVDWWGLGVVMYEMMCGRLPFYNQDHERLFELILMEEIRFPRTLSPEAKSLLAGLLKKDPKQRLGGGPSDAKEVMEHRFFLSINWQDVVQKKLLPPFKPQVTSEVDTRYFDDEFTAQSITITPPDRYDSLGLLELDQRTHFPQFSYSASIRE
UniProt P17098: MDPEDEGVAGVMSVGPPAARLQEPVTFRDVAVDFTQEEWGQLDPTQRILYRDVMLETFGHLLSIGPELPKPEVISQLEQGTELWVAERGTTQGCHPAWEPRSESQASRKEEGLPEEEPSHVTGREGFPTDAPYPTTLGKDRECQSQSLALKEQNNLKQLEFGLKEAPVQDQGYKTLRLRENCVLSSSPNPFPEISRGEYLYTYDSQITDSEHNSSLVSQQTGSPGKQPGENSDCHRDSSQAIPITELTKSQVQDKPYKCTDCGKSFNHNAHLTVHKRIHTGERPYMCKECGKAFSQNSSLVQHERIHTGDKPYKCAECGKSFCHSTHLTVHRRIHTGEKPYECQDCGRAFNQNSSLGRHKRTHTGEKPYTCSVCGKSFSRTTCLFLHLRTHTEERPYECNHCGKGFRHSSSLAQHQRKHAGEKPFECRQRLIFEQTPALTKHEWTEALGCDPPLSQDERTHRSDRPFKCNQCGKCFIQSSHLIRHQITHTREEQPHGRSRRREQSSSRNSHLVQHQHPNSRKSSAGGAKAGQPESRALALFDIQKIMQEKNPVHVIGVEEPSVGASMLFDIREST
UniProt P28838: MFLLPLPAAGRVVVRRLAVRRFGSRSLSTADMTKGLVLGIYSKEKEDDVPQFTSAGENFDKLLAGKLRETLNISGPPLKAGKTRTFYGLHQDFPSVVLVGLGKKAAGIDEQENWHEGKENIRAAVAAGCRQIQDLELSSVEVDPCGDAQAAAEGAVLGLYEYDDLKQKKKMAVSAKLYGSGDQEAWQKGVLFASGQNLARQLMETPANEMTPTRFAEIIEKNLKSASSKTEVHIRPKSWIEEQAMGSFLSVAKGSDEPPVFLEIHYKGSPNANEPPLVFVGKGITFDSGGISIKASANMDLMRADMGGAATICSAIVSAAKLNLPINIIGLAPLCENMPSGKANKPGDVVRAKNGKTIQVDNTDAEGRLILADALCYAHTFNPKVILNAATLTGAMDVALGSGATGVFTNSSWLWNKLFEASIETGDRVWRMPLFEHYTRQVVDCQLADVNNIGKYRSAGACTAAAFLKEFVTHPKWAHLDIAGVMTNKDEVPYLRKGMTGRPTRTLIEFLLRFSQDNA
UniProt P30405: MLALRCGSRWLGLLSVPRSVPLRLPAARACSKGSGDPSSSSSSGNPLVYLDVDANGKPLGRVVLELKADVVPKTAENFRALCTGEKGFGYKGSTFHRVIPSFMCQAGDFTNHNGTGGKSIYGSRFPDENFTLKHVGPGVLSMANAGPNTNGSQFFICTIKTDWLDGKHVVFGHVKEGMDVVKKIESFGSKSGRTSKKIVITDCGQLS
UniProt P33992: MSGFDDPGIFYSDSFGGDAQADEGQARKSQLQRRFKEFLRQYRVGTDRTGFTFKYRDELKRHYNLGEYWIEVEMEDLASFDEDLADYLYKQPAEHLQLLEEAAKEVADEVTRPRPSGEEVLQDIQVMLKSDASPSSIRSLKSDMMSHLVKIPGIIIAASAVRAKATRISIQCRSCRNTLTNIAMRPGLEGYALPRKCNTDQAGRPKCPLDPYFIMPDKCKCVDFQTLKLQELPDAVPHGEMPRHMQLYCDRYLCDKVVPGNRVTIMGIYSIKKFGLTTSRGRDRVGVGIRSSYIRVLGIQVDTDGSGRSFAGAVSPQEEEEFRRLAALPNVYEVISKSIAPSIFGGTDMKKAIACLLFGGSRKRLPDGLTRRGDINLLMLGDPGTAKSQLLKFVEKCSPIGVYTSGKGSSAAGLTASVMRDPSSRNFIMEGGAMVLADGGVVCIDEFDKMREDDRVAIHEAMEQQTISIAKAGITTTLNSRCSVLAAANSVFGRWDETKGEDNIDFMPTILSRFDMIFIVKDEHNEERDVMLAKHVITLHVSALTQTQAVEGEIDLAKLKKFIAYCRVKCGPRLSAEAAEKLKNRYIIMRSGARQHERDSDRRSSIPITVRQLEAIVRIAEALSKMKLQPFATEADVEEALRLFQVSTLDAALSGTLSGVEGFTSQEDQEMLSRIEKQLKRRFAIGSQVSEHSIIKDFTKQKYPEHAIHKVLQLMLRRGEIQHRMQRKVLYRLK
UniProt P18065: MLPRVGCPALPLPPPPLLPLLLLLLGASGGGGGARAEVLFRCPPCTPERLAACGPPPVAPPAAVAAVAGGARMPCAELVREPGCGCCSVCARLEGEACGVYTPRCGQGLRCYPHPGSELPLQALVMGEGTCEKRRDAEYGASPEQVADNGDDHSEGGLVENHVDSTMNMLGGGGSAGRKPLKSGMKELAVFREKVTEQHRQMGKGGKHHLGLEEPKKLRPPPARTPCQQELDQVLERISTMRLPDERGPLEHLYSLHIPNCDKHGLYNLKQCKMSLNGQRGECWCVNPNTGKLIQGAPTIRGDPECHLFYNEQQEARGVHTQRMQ
UniProt P29374: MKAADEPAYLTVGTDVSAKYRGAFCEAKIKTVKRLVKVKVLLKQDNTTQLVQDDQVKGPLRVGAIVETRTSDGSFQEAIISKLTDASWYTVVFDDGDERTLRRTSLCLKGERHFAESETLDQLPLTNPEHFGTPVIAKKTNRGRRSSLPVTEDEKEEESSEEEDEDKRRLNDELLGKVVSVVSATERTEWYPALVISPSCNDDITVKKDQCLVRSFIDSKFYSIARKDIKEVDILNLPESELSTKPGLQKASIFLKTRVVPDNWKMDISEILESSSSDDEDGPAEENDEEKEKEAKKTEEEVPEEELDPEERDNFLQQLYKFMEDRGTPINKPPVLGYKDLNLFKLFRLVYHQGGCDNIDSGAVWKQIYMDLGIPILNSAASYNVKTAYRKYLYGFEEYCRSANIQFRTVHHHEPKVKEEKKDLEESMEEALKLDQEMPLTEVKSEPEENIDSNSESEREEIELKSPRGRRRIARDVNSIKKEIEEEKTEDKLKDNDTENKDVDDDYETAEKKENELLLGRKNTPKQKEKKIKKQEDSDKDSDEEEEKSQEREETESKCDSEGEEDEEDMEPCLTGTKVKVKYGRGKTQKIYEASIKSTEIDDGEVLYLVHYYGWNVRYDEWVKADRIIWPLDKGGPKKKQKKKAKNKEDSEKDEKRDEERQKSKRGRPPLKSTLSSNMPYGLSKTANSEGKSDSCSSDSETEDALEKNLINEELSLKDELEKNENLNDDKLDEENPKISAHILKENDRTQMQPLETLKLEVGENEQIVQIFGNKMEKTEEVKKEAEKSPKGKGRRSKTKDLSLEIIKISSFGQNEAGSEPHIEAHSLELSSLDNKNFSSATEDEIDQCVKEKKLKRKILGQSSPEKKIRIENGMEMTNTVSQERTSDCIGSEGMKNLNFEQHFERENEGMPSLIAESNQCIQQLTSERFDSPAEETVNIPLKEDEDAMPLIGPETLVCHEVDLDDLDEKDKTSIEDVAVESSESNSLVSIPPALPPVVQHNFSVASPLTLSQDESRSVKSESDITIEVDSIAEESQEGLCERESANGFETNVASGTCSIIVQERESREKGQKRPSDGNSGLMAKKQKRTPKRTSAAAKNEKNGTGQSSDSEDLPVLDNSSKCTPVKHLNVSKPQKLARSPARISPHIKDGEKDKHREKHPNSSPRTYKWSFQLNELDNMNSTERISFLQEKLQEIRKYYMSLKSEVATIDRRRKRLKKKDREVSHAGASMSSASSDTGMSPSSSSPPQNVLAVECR
UniProt P23786: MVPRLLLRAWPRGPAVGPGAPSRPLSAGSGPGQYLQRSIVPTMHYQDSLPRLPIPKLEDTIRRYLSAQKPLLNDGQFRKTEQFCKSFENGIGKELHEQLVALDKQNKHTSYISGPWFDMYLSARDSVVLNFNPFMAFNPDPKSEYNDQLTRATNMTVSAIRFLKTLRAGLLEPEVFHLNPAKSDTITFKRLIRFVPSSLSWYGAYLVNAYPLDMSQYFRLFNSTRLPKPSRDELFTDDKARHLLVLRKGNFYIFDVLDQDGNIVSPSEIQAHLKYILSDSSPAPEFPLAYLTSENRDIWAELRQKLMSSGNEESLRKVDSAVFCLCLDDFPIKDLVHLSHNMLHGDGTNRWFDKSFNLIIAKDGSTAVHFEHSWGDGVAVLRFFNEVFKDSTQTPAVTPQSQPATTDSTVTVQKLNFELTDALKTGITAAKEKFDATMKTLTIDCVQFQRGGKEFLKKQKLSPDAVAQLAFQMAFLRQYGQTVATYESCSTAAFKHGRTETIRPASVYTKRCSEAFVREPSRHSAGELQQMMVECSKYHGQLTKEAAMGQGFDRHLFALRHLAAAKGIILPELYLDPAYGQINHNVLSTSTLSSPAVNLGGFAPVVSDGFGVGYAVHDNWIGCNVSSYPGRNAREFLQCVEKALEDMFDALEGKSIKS
UniProt P20338: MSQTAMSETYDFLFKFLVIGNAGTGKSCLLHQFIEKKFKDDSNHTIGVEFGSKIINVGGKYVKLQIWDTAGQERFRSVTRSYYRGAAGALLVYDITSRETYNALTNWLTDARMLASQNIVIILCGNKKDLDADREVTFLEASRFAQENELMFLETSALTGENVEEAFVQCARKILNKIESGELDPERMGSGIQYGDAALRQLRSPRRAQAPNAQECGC
UniProt P28070, whole entry: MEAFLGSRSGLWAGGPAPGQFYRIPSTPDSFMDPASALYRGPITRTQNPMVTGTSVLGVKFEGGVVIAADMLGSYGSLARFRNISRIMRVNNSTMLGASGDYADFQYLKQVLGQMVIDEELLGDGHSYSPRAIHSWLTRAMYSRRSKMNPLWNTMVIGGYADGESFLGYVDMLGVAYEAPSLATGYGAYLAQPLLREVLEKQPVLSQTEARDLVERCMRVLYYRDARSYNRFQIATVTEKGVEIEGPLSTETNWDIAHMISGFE
UniProt P28331, whole entry: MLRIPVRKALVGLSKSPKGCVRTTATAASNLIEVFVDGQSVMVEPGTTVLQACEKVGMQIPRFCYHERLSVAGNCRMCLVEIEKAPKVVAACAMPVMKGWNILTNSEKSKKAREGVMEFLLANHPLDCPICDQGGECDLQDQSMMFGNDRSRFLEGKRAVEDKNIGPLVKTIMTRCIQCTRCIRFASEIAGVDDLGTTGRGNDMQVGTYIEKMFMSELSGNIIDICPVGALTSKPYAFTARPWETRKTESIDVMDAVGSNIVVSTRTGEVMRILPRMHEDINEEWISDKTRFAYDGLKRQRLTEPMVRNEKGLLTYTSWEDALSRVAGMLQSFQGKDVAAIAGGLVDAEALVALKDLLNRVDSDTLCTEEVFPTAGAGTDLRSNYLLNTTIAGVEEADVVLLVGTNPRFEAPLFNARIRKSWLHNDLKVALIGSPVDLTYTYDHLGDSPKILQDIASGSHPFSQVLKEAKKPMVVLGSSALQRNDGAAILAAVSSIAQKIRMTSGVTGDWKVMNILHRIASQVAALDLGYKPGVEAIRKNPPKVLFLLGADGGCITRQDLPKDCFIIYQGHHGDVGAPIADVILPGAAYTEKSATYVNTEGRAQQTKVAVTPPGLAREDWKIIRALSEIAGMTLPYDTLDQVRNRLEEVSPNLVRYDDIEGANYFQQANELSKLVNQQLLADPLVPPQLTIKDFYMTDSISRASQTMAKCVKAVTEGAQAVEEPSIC

Compound: Nc1ncnc2c1ncn2[C@@H]1O[C@H](COP(=O)(O)OP(=O)(O)OP(=O)(O)O)[C@@H](O)[C@H]1O [adenosine triphosphate]
Experiment: NP40-soluble protein abundance relative to vehicle (solubility fold change) (ratio); higher = more soluble protein in presence of ATP
Summary of the method: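 In three independent experiments, Jurkat crude lysate made by Dounce homogenisation was treated for 10 min at room temperature and then 3 min at 37 °C with eight concentrations ranging from 0.1 to 10 mM. It was then solubilised with 0.8% NP40 plus benzonase for 60 min at 4 °C and ultracentrifuged. The supernatant was TMT-labelled for LC-MS/MS, and each value is the fold change against the detergent-processed vehicle for the same replicate, using vsn-normalised intensities.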

Target	NP40-soluble protein abundance (concentration: 1mM)	NP40-soluble protein abundance (concentration: 2mM)	NP40-soluble protein abundance (concentration: 4mM)	NP40-soluble protein abundance (concentration: 6mM)	NP40-soluble protein abundance (concentration: 8mM)	NP40-soluble protein abundance (concentration: 10mM)
RPA3 (UniProt P35244)	1.01 ± 0.04	0.999 ± 0.033	0.97 ± 0.072	0.978 ± 0.014	0.948 ± 0.071	0.908 ± 0.018
UniProt P25054 and related entries	0.962 ± 0.089	0.987 ± 0.072	0.991 ± 0.028	1.05 ± 0.15	0.966 ± 0.024	0.978 ± 0.027
SCP2 (UniProt P22307)	0.9333 ± 0.0015	0.969 ± 0.013	0.931 ± 0.011	0.941 ± 0.028	0.914 ± 0.024	0.911 ± 0.035
PIK3R1 (UniProt P27986)	0.995 ± 0.012	0.987 ± 0.016	0.968 ± 0.011	0.998 ± 0.034	0.976 ± 0.0084	0.972 ± 0.017
PRKAR2B (UniProt P31323)	1.04 ± 0.07	1.03 ± 0.06	0.998 ± 0.021	1.03 ± 0.022	0.968 ± 0.032	1.03 ± 0.057
UniProt P25098	1.01 ± 0.04	0.973 ± 0.032	0.956 ± 0.021	0.924 ± 0.075	0.97 ± 0.0097	0.951 ± 0.025
YY1 (UniProt P25490)	0.973 ± 0.05	0.976 ± 0.021	0.973 ± 0.027	1.01 ± 0.06	0.996 ± 0.031	0.996 ± 0.022
PRDX2 (UniProt P32119)	0.966 ± 0.053	0.933 ± 0.059	0.91 ± 0.029	0.944 ± 0.082	0.928 ± 0.066	0.896 ± 0.078
MCM7 (UniProt P33993)	0.966 ± 0.038	0.954 ± 0.031	0.928 ± 0.014	0.91 ± 0.025	0.965 ± 0.021	0.951 ± 0.042
NAGA (UniProt P17050)	0.986 ± 0.036	1 ± 0.018	0.996 ± 0.031	0.974 ± 0.019	0.955 ± 0.057	0.95 ± 0.031
MAN1A1 (UniProt P33908)	0.902 ± 0.032	0.915 ± 0.034	0.9054 ± 0.0054	0.909 ± 0.042	0.9103 ± 0.0073	0.911 ± 0.029
AKT2 (UniProt P31751)	1.03 ± 0.1	1.04 ± 0.12	1.01 ± 0.11	0.93 ± 0.13	1.03 ± 0.077	1.01 ± 0.097
ZNF22 (UniProt P17026)	1.04 ± 0.023	1.07 ± 0.086	1.09 ± 0.072	1.13 ± 0.084	1.15 ± 0.059	1.25 ± 0.078
UniProt P33981 and related entries	1.1 ± 0.043	1.08 ± 0.039	1.12 ± 0.019	1.11 ± 0.024	1.11 ± 0.036	1.08 ± 0.039
UniProt P29350 and related entries	1.02 ± 0.057	0.994 ± 0.057	0.98 ± 0.062	0.984 ± 0.081	0.99 ± 0.073	0.974 ± 0.052
UniProt P19525	1.1 ± 0.1	1.09 ± 0.065	1.07 ± 0.072	1.09 ± 0.11	1.09 ± 0.064	1.07 ± 0.043
ZNF8 (UniProt P17098)	1.02 ± 0.092	1.03 ± 0.066	1.01 ± 0.052	1.04 ± 0.06	1.01 ± 0.062	0.991 ± 0.052
UniProt P17706 and related entries	0.96 ± 0.086	0.93 ± 0.084	0.92 ± 0.077	0.945 ± 0.073	0.923 ± 0.053	0.931 ± 0.053
UniProt P23511 and related entries	0.908 ± 0.045	0.917 ± 0.011	0.882 ± 0.034	0.988 ± 0.023	0.881 ± 0.051	0.88 ± 0.056
UniProt P18615 and related entries	0.951 ± 0.031	0.95 ± 0.044	0.938 ± 0.032	0.983 ± 0.043	0.914 ± 0.066	0.916 ± 0.043

Target	NP40-soluble protein abundance (concentration: 1mM)	NP40-soluble protein abundance (concentration: 2mM)	NP40-soluble protein abundance (concentration: 4mM)	NP40-soluble protein abundance (concentration: 6mM)	NP40-soluble protein abundance (concentration: 8mM)	NP40-soluble protein abundance (concentration: 10mM)
UniProt P19174-2|P19174	0.998 ± 0.082	0.967 ± 0.073	0.959 ± 0.072	0.911 ± 0.1	0.994 ± 0.065	0.955 ± 0.056
LRPAP1 (UniProt P30533)	0.99 ± 0.098	0.954 ± 0.01	1.02 ± 0.0071	1.11 ± 0.029	1.03 ± 0.039	0.994 ± 0.11
HMGB2 (UniProt P26583)	1.02 ± 0.17	0.944 ± 0.1	0.97 ± 0.12	1.05 ± 0.14	1.02 ± 0.018	0.851 ± 0.22
VARS (UniProt P26640)	1.02 ± 0.071	0.971 ± 0.05	0.966 ± 0.035	0.906 ± 0.024	0.992 ± 0.022	0.944 ± 0.041
UniProt P20290 and related entries	1.08 ± 0.12	1.08 ± 0.055	1.13 ± 0.081	1.24 ± 0.089	1.16 ± 0.036	1.16 ± 0.06
PPIB (UniProt P23284)	0.971 ± 0.036	0.985 ± 0.034	0.946 ± 0.025	1.05 ± 0.035	0.9717 ± 0.0091	0.979 ± 0.044
AGL (UniProt P35573)	1.12 ± 0.021	1.11 ± 0.019	1.2 ± 0.063	1.16 ± 0.04	1.29 ± 0.091	1.34 ± 0.044
UniProt P17812	1 ± 0.063	0.976 ± 0.064	0.928 ± 0.06	0.917 ± 0.093	0.966 ± 0.064	0.937 ± 0.073
UniProt P29375 and related entries	1.2 ± 0.19	1.23 ± 0.16	1.29 ± 0.11	1.35 ± 0.19	1.46 ± 0.15	1.5 ± 0.13
UniProt P35611 and related entries	0.95 ± 0.019	0.9546 ± 0.0079	0.942 ± 0.015	0.937 ± 0.019	0.9399 ± 0.0069	0.96 ± 0.014
UniProt P28838 and related entries	0.959 ± 0.043	0.957 ± 0.04	0.934 ± 0.05	0.965 ± 0.04	0.945 ± 0.055	0.948 ± 0.054
UniProt P29372 and related entries	1.11 ± 0.073	1.12 ± 0.028	1.23 ± 0.04	1.29 ± 0.056	1.36 ± 0.093	1.44 ± 0.033
PPIF (UniProt P30405)	0.993 ± 0.046	0.963 ± 0.011	0.934 ± 0.0096	1.011 ± 0.0056	0.955 ± 0.024	0.911 ± 0.038
VDAC1 (UniProt P21796)	0.941 ± 0.015	0.942 ± 0.013	0.885 ± 0.016	0.914 ± 0.046	0.89 ± 0.026	0.924 ± 0.023
ARF4 (UniProt P18085)	1.08 ± 0.29	1.04 ± 0.18	0.964 ± 0.11	0.889 ± 0.2	1.02 ± 0.15	1.01 ± 0.063
ATIC (UniProt P31939)	0.991 ± 0.035	1.01 ± 0.063	0.966 ± 0.047	0.982 ± 0.093	0.976 ± 0.056	0.969 ± 0.071
UniProt P30519 and related entries	0.965 ± 0.097	0.93 ± 0.059	0.836 ± 0.18	0.869 ± 0.2	0.918 ± 0.019	0.877 ± 0.028
UniProt P34896 and related entries	0.997 ± 0.07	0.992 ± 0.051	0.96 ± 0.035	0.945 ± 0.043	0.967 ± 0.022	0.965 ± 0.03
MCM5 (UniProt P33992)	0.971 ± 0.061	0.961 ± 0.043	0.953 ± 0.048	0.906 ± 0.028	0.979 ± 0.025	0.949 ± 0.033
GOT1 (UniProt P17174)	0.987 ± 0.063	0.94 ± 0.038	0.922 ± 0.025	0.932 ± 0.088	0.914 ± 0.014	0.919 ± 0.033

Target	NP40-soluble protein abundance (concentration: 1mM)	NP40-soluble protein abundance (concentration: 2mM)	NP40-soluble protein abundance (concentration: 4mM)	NP40-soluble protein abundance (concentration: 6mM)	NP40-soluble protein abundance (concentration: 8mM)	NP40-soluble protein abundance (concentration: 10mM)
MCM4 (UniProt P33991)	0.983 ± 0.039	0.943 ± 0.026	0.913 ± 0.018	0.934 ± 0.037	0.958 ± 0.029	0.933 ± 0.034
IGFBP2 (UniProt P18065)	0.969 ± 0.026	1.02 ± 0.054	1.019 ± 0.0041	1.01 ± 0.024	0.995 ± 0.029	0.988 ± 0.033
FKBP2 (UniProt P26885)	0.923 ± 0.043	0.919 ± 0.044	0.882 ± 0.027	0.897 ± 0.031	0.894 ± 0.014	0.852 ± 0.058
UniProt P23634-6	1.08 ± 0.12	1.01 ± 0.075	1.02 ± 0.1	0.992 ± 0.091	1.03 ± 0.093	1.02 ± 0.082
GNA15 (UniProt P30679)	1.05 ± 0.15	1.01 ± 0.12	1.01 ± 0.12	0.899 ± 0.15	1.02 ± 0.097	0.975 ± 0.083
UniProt P29374 and related entries	1.03 ± 0.046	1.03 ± 0.033	1.04 ± 0.046	1.06 ± 0.088	1.05 ± 0.061	1.09 ± 0.056
UniProt P34897 and related entries	0.968 ± 0.051	0.966 ± 0.035	0.951 ± 0.036	0.92 ± 0.061	0.958 ± 0.035	0.974 ± 0.047
DEK (UniProt P35659)	1.04 ± 0.092	1.09 ± 0.042	1.1 ± 0.047	1.19 ± 0.051	1.12 ± 0.023	1.13 ± 0.021
CPT2 (UniProt P23786)	0.995 ± 0.071	0.992 ± 0.078	0.959 ± 0.066	0.94 ± 0.11	0.979 ± 0.048	0.962 ± 0.066
RAB4A (UniProt P20338)	0.976 ± 0.1	1.04 ± 0.12	1.05 ± 0.06	0.967 ± 0.067	1.02 ± 0.068	0.967 ± 0.077
WARS (UniProt P23381)	0.997 ± 0.077	0.973 ± 0.055	0.962 ± 0.044	0.917 ± 0.1	0.963 ± 0.044	0.952 ± 0.057
PSMB1 (UniProt P20618)	0.833 ± 0.27	0.959 ± 0.12	0.875 ± 0.075	0.813 ± 0.17	0.908 ± 0.064	0.839 ± 0.12
ACO1 (UniProt P21399)	1 ± 0.074	0.987 ± 0.07	0.986 ± 0.058	0.942 ± 0.088	0.982 ± 0.061	0.961 ± 0.054
PSMB4 (UniProt P28070)	0.965 ± 0.11	0.943 ± 0.049	0.906 ± 0.041	0.867 ± 0.018	0.944 ± 0.049	0.928 ± 0.051
UniProt P20073 and related entries	0.949 ± 0.056	0.9483 ± 0.003	0.933 ± 0.021	0.922 ± 0.026	0.925 ± 0.037	0.913 ± 0.043
UniProt P30044 and related entries	0.993 ± 0.073	0.995 ± 0.017	0.979 ± 0.024	1.03 ± 0.014	0.95 ± 0.022	0.935 ± 0.057
UniProt P22694-2|P22694-3|P22694	1.04 ± 0.02	1.06 ± 0.028	1.02 ± 0.028	1.015 ± 0.0099	1.02 ± 0.033	1.02 ± 0.024
UniProt P28331 and related entries	0.976 ± 0.028	0.964 ± 0.02	0.926 ± 0.014	0.936 ± 0.071	0.94 ± 0.057	0.941 ± 0.034
DTYMK (UniProt P23919)	0.942 ± 0.037	0.953 ± 0.05	0.923 ± 0.034	0.933 ± 0.064	0.938 ± 0.058	0.921 ± 0.043
CSRP1 (UniProt P21291)	0.958 ± 0.025	0.97 ± 0.018	0.937 ± 0.019	0.945 ± 0.053	0.95 ± 0.02	0.944 ± 0.014

Single records, as listed above. Order of values: NP40-soluble protein abundance (concentration: 1mM)	NP40-soluble protein abundance (concentration: 2mM)	NP40-soluble protein abundance (concentration: 4mM)	NP40-soluble protein abundance (concentration: 6mM)	NP40-soluble protein abundance (concentration: 8mM)	NP40-soluble protein abundance (concentration: 10mM)
DEK (UniProt P35659) in the list: 1.04 ± 0.092	1.09 ± 0.042	1.1 ± 0.047	1.19 ± 0.051	1.12 ± 0.023	1.13 ± 0.021
DTYMK (UniProt P23919) in the list: 0.942 ± 0.037	0.953 ± 0.05	0.923 ± 0.034	0.933 ± 0.064	0.938 ± 0.058	0.921 ± 0.043
UniProt P28331 and related entries in the list: 0.976 ± 0.028	0.964 ± 0.02	0.926 ± 0.014	0.936 ± 0.071	0.94 ± 0.057	0.941 ± 0.034
